The data set has as its system CK-MB (creatine kinase MB). The data set can be described thus: plate sandwich aptamer assay (ELAA), fluorescence. As to conditions: assay LOD 0.20 nM (not a Kd), 5'-biotin, streptavidin-coated plate, 5% BSA block, aptamer incubations 37 °C 30 min, PBST washes, ALP diluted in PBS pH 7.4, binding buffer salt not stated, label: biotin, single-stranded DNA.

From article PMC12293767 come the findings set out here.

For at least one entry, the source does not settle the construct or the ends of the probe. At least one verdict was read from the data and is not stated in words by the source.

Regarding “CATTGAGAGGGGGTGGCCGTAGTCAGGTGGGTGGGGGTTTGAG [apt. A2]”, under “detection aptamer on CK-MB captured by apt. A1, CK-MB 2.5-160 nM”, the binding result is recorded as “binds”.

Turning to “GGGGGGTGGGTGGGGGATCTCGGAGGATGCTTTTAGGGGGTTGGG [apt. A1]”, where the note is “capture aptamer, with apt. A2 as detection aptamer, CK-MB 2.5-160 nM”, the binding result is “binds”.
